According to patent US11033516B1, “Combination therapies with disulfiram” (Spring Discovery, Inc., priority 2020, dated 2021):
At least one compound was matched to its structure with a doubt left.

Tested on: THP1 HMGB1 Lucia cells
Experiment: Pyroptosis inhibition luciferase assay (LPS + nigericin, HMGB1 luciferase reporter, QUANTI-Luc)
Conditions: 1 μg/ml LPS 3 h, then 10 μM nigericin 3 h

Compound: CCN(CC)C(=S)SSC(=S)N(CC)CC [disulfiram]
- inhibition of pyroptosis (HMGB1 luciferase reporter in supernatant): reduced inflammasome-mediated pyroptotic cell death
